Assay results from patent publication US20050118148.
At least one result comes from cells or an extract, where the contact may be indirect. For some of these results: No signal at the amounts used counts as a negative. For some of these results: Protein sequences can lack the tags named with them. For some of these results: Construct, isoform or probe ends are uncertain for at least one entry.

Protein sequences, listed by entry. Tags and fused reporters are not part of them. Lines headed by an entry give the natural chain unless they say otherwise; changes in a name come on top.
UniProt Q8CF90: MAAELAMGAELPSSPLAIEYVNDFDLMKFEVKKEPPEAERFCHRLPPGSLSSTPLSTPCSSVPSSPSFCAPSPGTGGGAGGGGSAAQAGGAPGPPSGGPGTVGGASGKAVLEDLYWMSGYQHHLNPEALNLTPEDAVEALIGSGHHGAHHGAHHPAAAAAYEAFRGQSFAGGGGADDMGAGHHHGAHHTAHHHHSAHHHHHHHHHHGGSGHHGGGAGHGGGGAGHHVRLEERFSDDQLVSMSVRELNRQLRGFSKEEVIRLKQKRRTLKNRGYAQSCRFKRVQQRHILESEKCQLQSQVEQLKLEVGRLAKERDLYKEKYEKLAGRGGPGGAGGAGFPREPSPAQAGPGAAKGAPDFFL
UniProt P54841: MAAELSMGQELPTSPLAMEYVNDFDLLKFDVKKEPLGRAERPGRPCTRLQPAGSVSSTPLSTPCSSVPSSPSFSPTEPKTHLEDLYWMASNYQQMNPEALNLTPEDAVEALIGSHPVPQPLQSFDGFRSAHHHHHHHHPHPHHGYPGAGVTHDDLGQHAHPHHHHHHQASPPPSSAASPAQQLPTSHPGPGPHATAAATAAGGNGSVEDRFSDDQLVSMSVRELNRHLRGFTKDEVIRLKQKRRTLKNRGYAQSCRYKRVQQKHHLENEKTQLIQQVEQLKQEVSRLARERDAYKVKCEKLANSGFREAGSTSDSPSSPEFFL

Legend:
[1] = target: RIPE3b1 activator (MafA, endogenous) (Mus musculus) (UniProt Q8CF90); assay: EMSA; conditions: protein in an extract, protein details: beta cell line nuclear extract (betaTC-3, Min6), label: 32P
[2] = target: RIPE3b1 activator (MafA, endogenous) (Mus musculus) (UniProt Q8CF90); assay: pull-down; conditions: oligonucleotide trapping, second affinity step; protein in an extract; protein details: beta cell line nuclear extract (betaTC-3, Min6)
c-Maf (Mus musculus) [3] = target: T1, c-Maf (Mus musculus) (UniProt P54843); assay: competition with a labelled probe; conditions: 10x competitor did not compete; protein in a lysate after overexpression; variant of C1/RIPE3b1 (rat insulin II -126/-101)
T1 sequence (looked up, limits assumed): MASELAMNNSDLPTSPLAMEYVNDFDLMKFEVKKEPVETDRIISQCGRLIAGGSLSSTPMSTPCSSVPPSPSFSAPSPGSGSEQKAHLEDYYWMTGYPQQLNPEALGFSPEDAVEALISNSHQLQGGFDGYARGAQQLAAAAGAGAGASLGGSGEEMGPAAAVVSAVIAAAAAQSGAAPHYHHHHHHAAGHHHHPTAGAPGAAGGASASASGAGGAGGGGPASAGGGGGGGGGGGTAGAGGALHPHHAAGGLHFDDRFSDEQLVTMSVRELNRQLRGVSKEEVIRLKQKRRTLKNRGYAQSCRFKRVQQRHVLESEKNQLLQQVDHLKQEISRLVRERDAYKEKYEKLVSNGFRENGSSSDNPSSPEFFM

[4] = target: MafA (mouse L-Maf, RIPE3b1 activator) (Mus musculus) (UniProt Q8CF90); assay: competition with a labelled probe; conditions: 10x competitor did not compete; protein in a lysate after overexpression; variant of C1/RIPE3b1 (rat insulin II -126/-101)
MafB (Mus musculus) [5] = target: MafB (Mus musculus) (UniProt P54841); assay: competition with a labelled probe; conditions: 10x competitor did not compete; protein in a lysate after overexpression; variant of C1/RIPE3b1 (rat insulin II -126/-101)
c-Maf (Mus musculus) [6] = target: T1, c-Maf (Mus musculus); assay: EMSA; conditions: HeLa nuclear extract, 100 mM NaCl, 4 C; protein in a lysate after overexpression; label: 32P
[7] = target: MafA (mouse L-Maf, RIPE3b1 activator) (Mus musculus) (UniProt Q8CF90); assay: EMSA; conditions: HeLa nuclear extract, 100 mM NaCl, 4 C; protein in a lysate after overexpression; label: 32P
MafB (Mus musculus) [8] = target: MafB (Mus musculus) (UniProt P54841); assay: EMSA; conditions: HeLa nuclear extract, 100 mM NaCl, 4 C; protein in a lysate after overexpression; label: 32P

“AGCTTAAAGCACAGCAAAAATATTAT (double strand) [pdx-1 B5]”: no binding ([1]; variant of pdx-1 B4/5).
“AGCTTCTTTTTGCAAAGCACAGCAAAAAT (double strand) [pdx-1 B4/5]”: binds [1].
“TCTTTTTGCAAAGCACAGCAAAAA (double strand) [pdx-1 -2106/-2083]”: binds [2].
“TGGAAACTGCAGCTTACTACCCTCTG (double strand) [C1/RIPE3b1 -111/-108 mutant]”: no binding (c-Maf (Mus musculus) [3]); no binding [4]; no binding (MafB (Mus musculus) [5]).
“TGGAAACTGCAGCTTCAGCCCCTCTG (double strand) [C1/RIPE3b1 (rat insulin II -126/-101)]”: binds (c-Maf (Mus musculus) [6]); binds [7]; binds (MafB (Mus musculus) [8]). “TGGAAACTGCAGCTTCAGCCCCTCTG (double strand) [C1/RIPE3b1 (rat insulin II -126/-101)]”: binds ([1]; supershifted by anti-Maf, also South-Western).
